This note sets out measurements from the supplement of paper PMC10849652.

Chains of the proteins cited; added tags and fusions are not shown. Lines headed by an entry give the natural chain unless they say otherwise; changes in a name come on top.
UniProt O14521: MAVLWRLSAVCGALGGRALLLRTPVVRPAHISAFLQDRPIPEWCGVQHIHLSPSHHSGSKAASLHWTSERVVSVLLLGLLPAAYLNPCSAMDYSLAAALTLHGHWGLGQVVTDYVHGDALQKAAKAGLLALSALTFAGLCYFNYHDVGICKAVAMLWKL
UniProt O95487: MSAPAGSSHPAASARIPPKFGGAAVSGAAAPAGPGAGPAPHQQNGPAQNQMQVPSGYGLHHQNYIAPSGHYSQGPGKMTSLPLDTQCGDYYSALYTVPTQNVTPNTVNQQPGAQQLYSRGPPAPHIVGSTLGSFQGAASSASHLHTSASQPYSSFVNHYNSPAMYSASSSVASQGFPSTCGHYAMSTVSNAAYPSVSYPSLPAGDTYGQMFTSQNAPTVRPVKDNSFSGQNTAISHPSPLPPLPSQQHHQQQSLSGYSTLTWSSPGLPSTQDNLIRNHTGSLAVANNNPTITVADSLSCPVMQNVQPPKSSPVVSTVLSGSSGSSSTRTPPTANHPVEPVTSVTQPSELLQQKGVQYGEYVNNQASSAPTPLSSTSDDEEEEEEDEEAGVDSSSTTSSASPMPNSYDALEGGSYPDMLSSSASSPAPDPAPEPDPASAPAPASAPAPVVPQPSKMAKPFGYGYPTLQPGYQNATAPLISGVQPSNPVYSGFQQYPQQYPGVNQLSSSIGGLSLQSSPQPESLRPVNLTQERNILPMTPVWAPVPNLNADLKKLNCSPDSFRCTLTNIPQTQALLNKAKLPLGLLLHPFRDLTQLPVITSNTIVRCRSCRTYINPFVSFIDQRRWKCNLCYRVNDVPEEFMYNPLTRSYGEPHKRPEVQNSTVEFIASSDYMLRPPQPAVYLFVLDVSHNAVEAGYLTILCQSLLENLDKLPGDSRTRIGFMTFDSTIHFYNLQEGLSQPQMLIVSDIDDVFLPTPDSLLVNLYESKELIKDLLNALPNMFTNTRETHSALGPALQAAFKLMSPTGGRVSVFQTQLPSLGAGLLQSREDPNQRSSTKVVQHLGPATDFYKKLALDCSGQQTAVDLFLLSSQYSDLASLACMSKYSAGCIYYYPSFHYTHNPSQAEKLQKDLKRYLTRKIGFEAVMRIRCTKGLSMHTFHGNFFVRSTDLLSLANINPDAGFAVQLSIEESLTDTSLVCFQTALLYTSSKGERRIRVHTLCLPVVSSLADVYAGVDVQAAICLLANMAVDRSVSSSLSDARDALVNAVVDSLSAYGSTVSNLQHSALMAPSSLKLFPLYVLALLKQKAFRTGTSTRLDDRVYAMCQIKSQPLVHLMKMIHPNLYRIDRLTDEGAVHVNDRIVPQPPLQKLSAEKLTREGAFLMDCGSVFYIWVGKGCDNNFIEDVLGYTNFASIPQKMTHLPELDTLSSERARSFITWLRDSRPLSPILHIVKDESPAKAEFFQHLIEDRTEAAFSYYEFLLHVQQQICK
UniProt P62341, whole entry, looked up: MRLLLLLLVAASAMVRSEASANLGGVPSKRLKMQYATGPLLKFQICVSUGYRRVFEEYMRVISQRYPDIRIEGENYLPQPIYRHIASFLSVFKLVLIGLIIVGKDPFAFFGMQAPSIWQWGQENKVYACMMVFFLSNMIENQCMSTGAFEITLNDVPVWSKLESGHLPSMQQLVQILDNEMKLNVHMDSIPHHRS
UniProt Q9H0E3: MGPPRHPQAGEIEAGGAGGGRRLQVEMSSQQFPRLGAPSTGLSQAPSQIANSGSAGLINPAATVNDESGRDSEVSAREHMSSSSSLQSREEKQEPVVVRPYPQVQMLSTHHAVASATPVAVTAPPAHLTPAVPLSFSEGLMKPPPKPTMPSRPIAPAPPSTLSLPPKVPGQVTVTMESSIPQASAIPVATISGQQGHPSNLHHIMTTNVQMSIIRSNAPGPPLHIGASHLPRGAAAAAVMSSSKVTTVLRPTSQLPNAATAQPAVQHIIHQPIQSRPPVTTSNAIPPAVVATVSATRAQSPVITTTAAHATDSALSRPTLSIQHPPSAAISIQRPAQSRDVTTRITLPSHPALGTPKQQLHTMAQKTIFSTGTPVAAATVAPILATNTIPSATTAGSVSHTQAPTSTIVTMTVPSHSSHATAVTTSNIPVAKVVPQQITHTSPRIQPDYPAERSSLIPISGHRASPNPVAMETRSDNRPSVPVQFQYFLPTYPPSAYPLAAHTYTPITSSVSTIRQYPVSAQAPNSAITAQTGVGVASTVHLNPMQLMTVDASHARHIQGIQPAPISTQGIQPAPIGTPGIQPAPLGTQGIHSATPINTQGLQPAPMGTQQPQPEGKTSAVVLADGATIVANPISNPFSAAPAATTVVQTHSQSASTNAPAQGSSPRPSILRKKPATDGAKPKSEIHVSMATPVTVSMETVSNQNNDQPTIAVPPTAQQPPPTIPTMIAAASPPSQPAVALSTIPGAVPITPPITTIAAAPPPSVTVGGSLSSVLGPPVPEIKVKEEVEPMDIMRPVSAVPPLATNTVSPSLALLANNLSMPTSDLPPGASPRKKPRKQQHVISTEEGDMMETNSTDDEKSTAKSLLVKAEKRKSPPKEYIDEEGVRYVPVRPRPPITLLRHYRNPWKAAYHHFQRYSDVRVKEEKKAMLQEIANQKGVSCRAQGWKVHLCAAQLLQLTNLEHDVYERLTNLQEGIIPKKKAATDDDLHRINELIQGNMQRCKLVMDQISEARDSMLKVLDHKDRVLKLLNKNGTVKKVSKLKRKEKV
UniProt Q9NX18: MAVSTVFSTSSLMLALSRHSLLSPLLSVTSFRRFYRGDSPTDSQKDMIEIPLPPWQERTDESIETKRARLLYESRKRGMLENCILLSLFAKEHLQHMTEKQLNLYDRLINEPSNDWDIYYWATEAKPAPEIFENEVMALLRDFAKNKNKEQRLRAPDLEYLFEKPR
UniProt Q9Y467: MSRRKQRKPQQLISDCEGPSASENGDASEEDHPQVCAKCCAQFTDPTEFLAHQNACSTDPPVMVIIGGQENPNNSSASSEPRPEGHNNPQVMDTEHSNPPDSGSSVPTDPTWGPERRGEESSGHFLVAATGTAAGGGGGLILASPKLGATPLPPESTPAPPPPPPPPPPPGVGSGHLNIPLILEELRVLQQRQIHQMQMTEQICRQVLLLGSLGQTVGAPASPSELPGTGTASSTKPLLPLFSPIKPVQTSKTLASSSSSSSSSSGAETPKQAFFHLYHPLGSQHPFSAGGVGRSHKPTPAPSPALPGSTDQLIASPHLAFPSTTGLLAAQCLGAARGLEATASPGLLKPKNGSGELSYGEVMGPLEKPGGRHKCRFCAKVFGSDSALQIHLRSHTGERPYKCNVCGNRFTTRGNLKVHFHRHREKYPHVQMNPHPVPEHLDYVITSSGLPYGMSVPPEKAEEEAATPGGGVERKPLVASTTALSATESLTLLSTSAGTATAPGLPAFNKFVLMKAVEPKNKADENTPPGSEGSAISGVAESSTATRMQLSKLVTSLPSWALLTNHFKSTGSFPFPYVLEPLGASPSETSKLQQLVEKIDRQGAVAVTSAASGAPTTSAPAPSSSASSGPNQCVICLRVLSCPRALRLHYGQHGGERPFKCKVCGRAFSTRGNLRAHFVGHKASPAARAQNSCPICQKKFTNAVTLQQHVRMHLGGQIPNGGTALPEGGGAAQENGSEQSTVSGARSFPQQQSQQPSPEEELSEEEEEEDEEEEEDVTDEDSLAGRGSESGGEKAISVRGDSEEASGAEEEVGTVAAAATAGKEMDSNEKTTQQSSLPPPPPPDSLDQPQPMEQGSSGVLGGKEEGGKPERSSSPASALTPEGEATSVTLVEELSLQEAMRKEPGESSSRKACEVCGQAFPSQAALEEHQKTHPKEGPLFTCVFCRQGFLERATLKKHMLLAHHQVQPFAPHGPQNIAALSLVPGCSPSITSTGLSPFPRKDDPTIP
UniProt Q14108: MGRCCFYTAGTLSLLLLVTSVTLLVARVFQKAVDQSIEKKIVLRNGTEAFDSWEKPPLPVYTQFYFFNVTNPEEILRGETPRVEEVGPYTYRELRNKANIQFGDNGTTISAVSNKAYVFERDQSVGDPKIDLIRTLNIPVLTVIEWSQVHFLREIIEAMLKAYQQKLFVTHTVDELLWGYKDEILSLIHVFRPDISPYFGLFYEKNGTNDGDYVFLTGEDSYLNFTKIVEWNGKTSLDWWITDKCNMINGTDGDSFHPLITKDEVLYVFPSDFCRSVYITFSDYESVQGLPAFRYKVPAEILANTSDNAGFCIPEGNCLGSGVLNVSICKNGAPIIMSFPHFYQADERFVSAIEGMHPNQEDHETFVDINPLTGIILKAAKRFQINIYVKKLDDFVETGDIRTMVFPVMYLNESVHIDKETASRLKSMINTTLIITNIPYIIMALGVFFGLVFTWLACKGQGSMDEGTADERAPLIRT
UniProt Q9H7N4: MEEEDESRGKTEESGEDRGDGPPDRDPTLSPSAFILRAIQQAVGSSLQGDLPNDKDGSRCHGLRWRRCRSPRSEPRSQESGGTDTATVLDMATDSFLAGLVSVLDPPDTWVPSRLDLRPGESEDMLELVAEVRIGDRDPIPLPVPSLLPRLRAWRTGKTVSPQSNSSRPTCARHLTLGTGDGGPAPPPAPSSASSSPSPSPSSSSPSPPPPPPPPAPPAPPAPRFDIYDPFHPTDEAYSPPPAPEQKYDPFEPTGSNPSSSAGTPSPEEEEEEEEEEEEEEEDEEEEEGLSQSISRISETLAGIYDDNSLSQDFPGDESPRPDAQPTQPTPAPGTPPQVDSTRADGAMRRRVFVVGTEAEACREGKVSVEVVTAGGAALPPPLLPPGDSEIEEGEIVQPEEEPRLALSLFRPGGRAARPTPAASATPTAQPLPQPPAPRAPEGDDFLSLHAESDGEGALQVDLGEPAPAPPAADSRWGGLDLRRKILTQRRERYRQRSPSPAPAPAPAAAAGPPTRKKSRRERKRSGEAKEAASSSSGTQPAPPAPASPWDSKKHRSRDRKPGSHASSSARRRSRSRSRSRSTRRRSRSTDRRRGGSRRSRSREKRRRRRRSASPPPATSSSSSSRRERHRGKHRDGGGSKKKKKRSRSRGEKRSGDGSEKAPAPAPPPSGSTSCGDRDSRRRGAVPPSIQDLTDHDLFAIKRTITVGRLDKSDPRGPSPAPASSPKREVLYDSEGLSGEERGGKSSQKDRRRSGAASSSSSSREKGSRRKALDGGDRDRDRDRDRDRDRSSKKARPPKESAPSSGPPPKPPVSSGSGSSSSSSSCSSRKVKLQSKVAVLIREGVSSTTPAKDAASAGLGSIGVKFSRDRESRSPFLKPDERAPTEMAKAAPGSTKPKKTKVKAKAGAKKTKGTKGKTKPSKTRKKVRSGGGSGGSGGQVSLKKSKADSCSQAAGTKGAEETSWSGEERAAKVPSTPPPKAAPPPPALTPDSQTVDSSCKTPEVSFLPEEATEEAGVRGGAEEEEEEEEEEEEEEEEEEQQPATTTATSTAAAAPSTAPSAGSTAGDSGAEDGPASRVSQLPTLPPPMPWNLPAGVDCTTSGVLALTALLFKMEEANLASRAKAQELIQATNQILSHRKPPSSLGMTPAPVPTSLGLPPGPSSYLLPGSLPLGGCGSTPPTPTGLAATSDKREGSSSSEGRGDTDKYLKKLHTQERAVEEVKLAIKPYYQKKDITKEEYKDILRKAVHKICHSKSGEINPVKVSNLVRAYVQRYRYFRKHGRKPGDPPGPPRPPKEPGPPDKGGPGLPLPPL
UniProt Q15424: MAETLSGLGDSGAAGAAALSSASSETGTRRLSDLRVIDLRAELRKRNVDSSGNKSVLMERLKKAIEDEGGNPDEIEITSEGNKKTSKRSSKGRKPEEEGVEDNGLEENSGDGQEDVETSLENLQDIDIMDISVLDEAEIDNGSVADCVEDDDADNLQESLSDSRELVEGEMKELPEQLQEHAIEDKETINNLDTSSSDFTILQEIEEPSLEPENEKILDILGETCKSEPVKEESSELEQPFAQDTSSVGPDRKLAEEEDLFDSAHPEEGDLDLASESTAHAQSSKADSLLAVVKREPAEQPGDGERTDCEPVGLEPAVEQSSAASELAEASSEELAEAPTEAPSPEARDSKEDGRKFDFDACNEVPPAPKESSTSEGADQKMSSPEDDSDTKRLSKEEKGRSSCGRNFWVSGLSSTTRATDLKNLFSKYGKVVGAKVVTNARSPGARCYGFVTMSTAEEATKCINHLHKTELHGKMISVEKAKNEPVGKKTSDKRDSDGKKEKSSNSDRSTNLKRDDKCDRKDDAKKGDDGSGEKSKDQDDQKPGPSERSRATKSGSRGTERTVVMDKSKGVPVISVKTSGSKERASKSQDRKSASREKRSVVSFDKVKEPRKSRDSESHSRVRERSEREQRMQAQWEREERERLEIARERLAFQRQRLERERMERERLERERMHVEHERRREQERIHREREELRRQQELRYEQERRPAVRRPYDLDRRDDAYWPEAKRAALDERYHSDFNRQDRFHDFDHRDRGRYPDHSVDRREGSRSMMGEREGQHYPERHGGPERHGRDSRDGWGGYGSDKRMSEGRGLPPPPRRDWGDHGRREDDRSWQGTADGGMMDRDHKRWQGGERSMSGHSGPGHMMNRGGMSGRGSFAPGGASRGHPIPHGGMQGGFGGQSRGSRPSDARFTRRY

This is one part of the list.

Compound in one assay: CC[C@@H]1C(=O)N(C)c2cnc(Nc3ccc(C(=O)NC4CCN(C)CC4)cc3OC)nc2N1C1CCCC1
Description: log2 fold change, soluble protein after heating vs DMSO (PISA); higher = thermal stabilisation; K562 lysate, 10 uM; active = over 0.2 and 3.5 SD of the protein, either way, in both replicates (recomputed). Summed up:
(§1)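 Dounce homogenisation of K562 pellets in PBS pH 7.4 with 1 mM MgCl2 produced a crude extract, used at 1 mg/mL protein. Exposure to 10 μM compound lasted 30 min, and aliquots were then heated for 3 min across 48°C-58°C, pooled and brought to 0.5% NP-40 at 4°C. The supernatant after 21,000xg for 90 min was quantified by TMTpro 16plex LC-MS/MS with channel sums equalised. Duplicate values are given as log-two fold change in thermal stability relative to solvent controls.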
As to SATB2 (UniProt Q9UPW6), the log2 fold change was inactive: 0.023.

Turning to SEMA4G isoform 2 (UniProt Q9NTN9), the log2 fold change was inactive: -0.059.

For SEC62 (UniProt Q99442), the log2 fold change is inactive: 0.017.

With SAP30 (UniProt O75446), the log2 fold change was inactive: 0.063.

Turning to SENP5 (UniProt Q96HI0), the log2 fold change is inactive: 0.05.

SDHD (UniProt O14521): the log2 fold change was inactive: -0.074.

As to SCYL3 isoform 2 (UniProt Q8IZE3), the log2 fold change was inactive: 0.024.

Consider SEC24B isoform 3 (UniProt O95487), for which the log2 fold change is inactive: 0.03.

As for SCML2 (UniProt Q9UQR0), the log2 fold change is inactive: -0.007.

For SELENOT (UniProt P62341), the log2 fold change was inactive: 0.148.

For SAP130 isoform 3 (UniProt Q9H0E3), the log2 fold change is inactive: 0.059.

For SCG3 (UniProt Q8WXD2), the log2 fold change is inactive: 0.083.

For SASH1 (UniProt O94885), the log2 fold change was inactive: -0.011.

As to SDHAF4 (UniProt Q5VUM1), the log2 fold change is inactive: 0.085.

For the target SENP8 (UniProt Q96LD8), the log2 fold change is inactive: 0.118.

SCAI isoform 2 (UniProt Q8N9R8): the log2 fold change is inactive: -0.074.

Consider SDHB, A0A087WWT1, for which the log2 fold change is inactive: 0.

Consider SDHAF2 (UniProt Q9NX18), for which the log2 fold change was inactive: -0.026.

Turning to SEL1L3 (UniProt Q68CR1), the log2 fold change is inactive: 0.066.

Consider SALL2 (UniProt Q9Y467), for which the log2 fold change was inactive: 0.024.

Regarding SCGB1D2 (UniProt O95969), the log2 fold change was inactive: 0.398.

Take SENP3 (UniProt Q9H4L4): the log2 fold change was inactive: -0.174.

As for SCARB2 (UniProt Q14108), the log2 fold change is inactive: 0.

For SEC61A1 (UniProt P61619), the log2 fold change is inactive: 0.071.

On to SAE1 (UniProt M0R286), for which the log2 fold change was inactive: -0.056.

As to SCAF1 (UniProt Q9H7N4), the log2 fold change was inactive: 0.089.

Regarding SAFB isoform 3 (UniProt Q15424), the log2 fold change was inactive: 0.054.

Compound in the next assay: CC[C@@H]1C(=O)N(C)c2cnc(Nc3ccc(C(=O)N[C@H]4CC[C@H](N5CCN(CC6CC6)CC5)CC4)cc3OC)nc2N1C(C)C [volasertib]
The description is as above. The procedure, abridged:
as §1
As to SATB2 (UniProt Q9UPW6), the log2 fold change was inactive: 0.007.

As for SEC62 (UniProt Q99442), the log2 fold change is inactive: 0.011.

As for SAP30 (UniProt O75446), the log2 fold change is inactive: -0.054.

In the case of SENP5 (UniProt Q96HI0), the log2 fold change was inactive: 0.053.

As to SDHD (UniProt O14521), the log2 fold change was inactive: -0.062.

For SEC11C (UniProt Q9BY50), the log2 fold change was inactive: 0.025.

Take SEC24B isoform 3 (UniProt O95487): the log2 fold change is inactive: -0.044.

On to SCML2 (UniProt Q9UQR0), for which the log2 fold change was inactive: -0.018.

For the target SELENOT (UniProt P62341), the log2 fold change is inactive: -0.003.

In the case of SEC14L1 isoform 2 (UniProt Q92503), the log2 fold change was inactive: -0.111.

With SAP130 isoform 3 (UniProt Q9H0E3), the log2 fold change was inactive: 0.032.

SELENOK (UniProt Q9Y6D0): the log2 fold change was inactive: 0.062.

Take SASH1 (UniProt O94885): the log2 fold change is inactive: 0.016.

For the target SDHAF4 (UniProt Q5VUM1), the log2 fold change was inactive: 0.015.

Turning to SENP8 (UniProt Q96LD8), the log2 fold change is inactive: -0.04.

As for SDHB, A0A087WWT1, the log2 fold change was inactive: 0.073.

For the target SDHAF2 (UniProt Q9NX18), the log2 fold change was inactive: 0.032.

Turning to SALL2 (UniProt Q9Y467), the log2 fold change was inactive: -0.123.

Consider SCGB1D2 (UniProt O95969), for which the log2 fold change was inactive: -0.378.

On to SENP3 (UniProt Q9H4L4), for which the log2 fold change was inactive: -0.516.

Turning to SCARB2 (UniProt Q14108), the log2 fold change is inactive: 0.014.

SEC61A1 (UniProt P61619): the log2 fold change is inactive: 0.058.

As for SAE1 (UniProt M0R286), the log2 fold change was inactive: 0.09.

In the case of SCAF1 (UniProt Q9H7N4), the log2 fold change was inactive: -0.114.

As for SAFB isoform 3 (UniProt Q15424), the log2 fold change is inactive: -0.019.

Compound in another assay: CCn1c(C(=O)N(C2CC2)C2CC2)cc2c3c(ncn3C)c(Nc3cc(C)n(C)n3)nc21
The description is as above. Summed up:
as §1
For the target SATB2 (UniProt Q9UPW6), the log2 fold change was inactive: 0.009.

For the target SEC62 (UniProt Q99442), the log2 fold change was inactive: 0.

SENP5 (UniProt Q96HI0): the log2 fold change is inactive: -0.055.

Consider SDHD (UniProt O14521), for which the log2 fold change is inactive: 0.051.

SEC11C (UniProt Q9BY50): the log2 fold change was inactive: -0.038.

As for SCYL3 isoform 2 (UniProt Q8IZE3), the log2 fold change was inactive: 0.015.

As for SEC24B isoform 3 (UniProt O95487), the log2 fold change was inactive: 0.036.

Consider SCML2 (UniProt Q9UQR0), for which the log2 fold change was inactive: 0.02.

Take SELENOT (UniProt P62341): the log2 fold change was inactive: -0.022.

Take SAP130 isoform 3 (UniProt Q9H0E3): the log2 fold change is inactive: 0.046.

As for SASH1 (UniProt O94885), the log2 fold change is inactive: -0.075.

As to SENP8 (UniProt Q96LD8), the log2 fold change is inactive: 0.071.

With SCAI isoform 2 (UniProt Q8N9R8), the log2 fold change was inactive: 0.064.

For SDHB, A0A087WWT1, the log2 fold change was inactive: -0.093.

With SDHAF2 (UniProt Q9NX18), the log2 fold change was inactive: -0.017.

Regarding SEL1L3 (UniProt Q68CR1), the log2 fold change was inactive: -0.002.

On to SALL2 (UniProt Q9Y467), for which the log2 fold change was inactive: 0.049.

SCGB1D2 (UniProt O95969): the log2 fold change is inactive: 0.243.

Turning to SCARB2 (UniProt Q14108), the log2 fold change was inactive: 0.026.

With SEC61A1 (UniProt P61619), the log2 fold change is inactive: -0.054.

Regarding SCAF1 (UniProt Q9H7N4), the log2 fold change was inactive: 0.05.

As for SAFB isoform 3 (UniProt Q15424), the log2 fold change was inactive: 0.016.
